Results are given in words; binding and its absence hold for the method and conditions named. Binding seen in cells or lysates may run through a third protein. Some binding calls cover weakened binding; strength is not graded here.
Tests used:
[1] = target: T1, Recombinant human Robo1 encoding the extracellular five Ig-like domains fused with the Fc domains of human IgG1 (human) (UniProt Q9Y6N7+P01857); test: Protein A bead pulldown with rSlit2 and/or rRspo1, immunoblot
[2] = target: T1, Recombinant human Robo1 encoding the extracellular five Ig-like domains fused with the Fc domains of human IgG1 (human); test: Protein A bead pulldown with Robo1-Fc, rSlit2 and/or rRspo1, immunoblot (FIG. 18A)

Chains of the proteins cited; added tags and fusions are not shown. Lines headed by an entry give the natural chain unless they say otherwise; changes in a name come on top.
UniProt Q9Y6N7: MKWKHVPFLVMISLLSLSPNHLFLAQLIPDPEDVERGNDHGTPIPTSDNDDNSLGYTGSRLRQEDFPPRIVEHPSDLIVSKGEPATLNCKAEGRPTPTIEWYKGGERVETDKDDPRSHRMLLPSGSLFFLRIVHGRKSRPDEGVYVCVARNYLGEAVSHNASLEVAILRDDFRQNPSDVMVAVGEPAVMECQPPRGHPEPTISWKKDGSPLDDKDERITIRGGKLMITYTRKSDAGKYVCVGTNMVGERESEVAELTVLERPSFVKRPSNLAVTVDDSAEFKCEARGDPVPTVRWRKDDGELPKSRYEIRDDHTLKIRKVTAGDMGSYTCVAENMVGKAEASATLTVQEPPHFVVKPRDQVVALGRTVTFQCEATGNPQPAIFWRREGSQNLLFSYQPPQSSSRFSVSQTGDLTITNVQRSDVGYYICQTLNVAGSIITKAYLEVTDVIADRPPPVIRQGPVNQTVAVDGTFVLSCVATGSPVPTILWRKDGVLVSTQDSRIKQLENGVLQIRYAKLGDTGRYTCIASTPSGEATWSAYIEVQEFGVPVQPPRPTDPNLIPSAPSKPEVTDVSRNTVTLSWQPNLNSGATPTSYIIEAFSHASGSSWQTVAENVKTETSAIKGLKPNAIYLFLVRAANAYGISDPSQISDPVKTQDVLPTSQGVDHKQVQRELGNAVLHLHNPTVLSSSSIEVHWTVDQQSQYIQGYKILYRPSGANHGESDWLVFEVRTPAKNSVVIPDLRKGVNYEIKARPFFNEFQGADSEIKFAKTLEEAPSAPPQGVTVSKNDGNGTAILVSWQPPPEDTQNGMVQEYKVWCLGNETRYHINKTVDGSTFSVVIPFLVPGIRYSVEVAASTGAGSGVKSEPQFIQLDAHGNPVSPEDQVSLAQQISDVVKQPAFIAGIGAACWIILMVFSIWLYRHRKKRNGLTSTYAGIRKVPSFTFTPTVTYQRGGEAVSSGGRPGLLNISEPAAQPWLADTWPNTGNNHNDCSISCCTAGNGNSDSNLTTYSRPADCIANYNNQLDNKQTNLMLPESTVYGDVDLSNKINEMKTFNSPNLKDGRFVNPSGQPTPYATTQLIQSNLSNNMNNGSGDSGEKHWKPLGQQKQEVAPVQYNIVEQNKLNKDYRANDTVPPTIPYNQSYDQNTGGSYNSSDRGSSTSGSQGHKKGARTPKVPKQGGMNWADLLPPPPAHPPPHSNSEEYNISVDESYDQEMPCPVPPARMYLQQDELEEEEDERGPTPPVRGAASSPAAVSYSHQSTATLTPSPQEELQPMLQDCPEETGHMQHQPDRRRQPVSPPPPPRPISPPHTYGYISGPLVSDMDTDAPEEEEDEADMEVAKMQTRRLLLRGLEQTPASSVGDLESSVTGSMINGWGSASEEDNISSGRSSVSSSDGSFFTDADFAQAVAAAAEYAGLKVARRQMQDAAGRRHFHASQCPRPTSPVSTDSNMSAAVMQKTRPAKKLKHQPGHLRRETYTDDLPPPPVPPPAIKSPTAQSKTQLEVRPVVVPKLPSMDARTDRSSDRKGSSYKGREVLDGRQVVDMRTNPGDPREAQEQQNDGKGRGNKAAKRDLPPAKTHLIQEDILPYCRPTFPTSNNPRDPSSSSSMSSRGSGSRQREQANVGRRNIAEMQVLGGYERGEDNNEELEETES

B1: Recombinant Slit2 (ligand, UniProt O94813 31-1529, looked up)
chain: QCSCSGSTVDCHGLALRSVPRNIPRNTERLDLNGNNITRITKTDFAGLRHLRVLQLMENKISTIERGAFQDLKELERLRLNRNHLQLFPELLFLGTAKLYRLDLSENQIQAIPRKAFRGAVDIKNLQLDYNQISCIEDGAFRALRDLEVLTLNNNNITRLSVASFNHMPKLRTFRLHSNNLYCDCHLAWLSDWLRQRPRVGLYTQCMGPSHLRGHNVAEVQKREFVCSGHQSFMAPSCSVLHCPAACTCSNNIVDCRGKGLTEIPTNLPETITEIRLEQNTIKVIPPGAFSPYKKLRRIDLSNNQISELAPDAFQGLRSLNSLVLYGNKITELPKSLFEGLFSLQLLLLNANKINCLRVDAFQDLHNLNLLSLYDNKLQTIAKGTFSPLRAIQTMHLAQNPFICDCHLKWLADYLHTNPIETSGARCTSPRRLANKRIGQIKSKKFRCSAKEQYFIPGTEDYRSKLSGDCFADLACPEKCRCEGTTVDCSNQKLNKIPEHIPQYTAELRLNNNEFTVLEATGIFKKLPQLRKINFSNNKITDIEEGAFEGASGVNEILLTSNRLENVQHKMFKGLESLKTLMLRSNRITCVGNDSFIGLSSVRLLSLYDNQITTVAPGAFDTLHSLSTLNLLANPFNCNCYLAWLGEWLRKKRIVTGNPRCQKPYFLKEIPIQDVAIQDFTCDDGNDDNSCSPLSRCPTECTCLDTVVRCSNKGLKVLPKGIPRDVTELYLDGNQFTLVPKELSNYKHLTLIDLSNNRISTLSNQSFSNMTQLLTLILSYNRLRCIPPRTFDGLKSLRLLSLHGNDISVVPEGAFNDLSALSHLAIGANPLYCDCNMQWLSDWVKSEYKEPGIARCAGPGEMADKLLLTTPSKKFTCQGPVDVNILAKCNPCLSNPCKNDGTCNSDPVDFYRCTCPYGFKGQDCDVPIHACISNPCKHGGTCHLKEGEEDGFWCICADGFEGENCEVNVDDCEDNDCENNSTCVDGINNYTCLCPPEYTGELCEEKLDFCAQDLNPCQHDSKCILTPKGFKCDCTPGYVGEHCDIDFDDCQDNKCKNGAHCTDAVNGYTCICPEGYSGLFCEFSPPMVLPRTSPCDNFDCQNGAQCIVRINEPICQCLPGYQGEKCEKLVSVNFINKESYLQIPSAKVRPQTNITLQIATDEDSGILLYKGDKDHIAVELYRGRVRASYDTGSHPASAIYSVETINDGNFHIVELLALDQSLSLSVDGGNPKIITNLSKQSTLNFDSPLYVGGMPGKSNVASLRQAPGQNGTSFHGCIRNLYINSELQDFQKVPMQTGILPGCEPCHKKVCAHGTCQPSSQAGFTCECQEGWMGPLCDQRTNDPCLGNKCVHGTCLPINAFSYSCKCLEGHGGVLCDEEEDLFNPCQAIKCKHGKCRLSGLGQPYCECSSGYTGDSCDREISCRGERIRDYYQKQQGYAACQTTKKVSRLECRGGCAGGQCCGPLRSKRRKYSFECTDGSSFVDEVEKVVKCGCTRCVS
binding [1]: binds | binding [2]: binds

Reference: patent US20160000865A1
